From paper PMC5421568
Numbering of substitutions follows the chain as printed. These are yes or no findings as the source states them, for the method shown. Some entries that bind do so weakly or less than the wild type. Where a sequence is shown, tags or fusion partners need not be part of it.

The chains behind the UniProt entries cited, without tags or fusion partners.
UniProt P15873: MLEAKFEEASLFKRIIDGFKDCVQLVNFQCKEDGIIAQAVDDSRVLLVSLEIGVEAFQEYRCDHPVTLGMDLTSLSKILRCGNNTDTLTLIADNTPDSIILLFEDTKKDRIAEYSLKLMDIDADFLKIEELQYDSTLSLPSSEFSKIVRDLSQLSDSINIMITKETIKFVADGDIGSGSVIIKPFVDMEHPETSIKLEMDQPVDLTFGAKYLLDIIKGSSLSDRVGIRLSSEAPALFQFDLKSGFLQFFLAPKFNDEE

Assays:
Experiment in all cases: two-hybrid; yeast two-hybrid; Mcm10-LexA fusion proteins co-expressed with PCNA; beta-galactosidase activity measured in cell extracts, in triplicate from three individual transformants
[1] = target: T1, Mcm10-K372R-LexA fusion protein (S. cerevisiae) (UniProt P32354)
T1 sequence: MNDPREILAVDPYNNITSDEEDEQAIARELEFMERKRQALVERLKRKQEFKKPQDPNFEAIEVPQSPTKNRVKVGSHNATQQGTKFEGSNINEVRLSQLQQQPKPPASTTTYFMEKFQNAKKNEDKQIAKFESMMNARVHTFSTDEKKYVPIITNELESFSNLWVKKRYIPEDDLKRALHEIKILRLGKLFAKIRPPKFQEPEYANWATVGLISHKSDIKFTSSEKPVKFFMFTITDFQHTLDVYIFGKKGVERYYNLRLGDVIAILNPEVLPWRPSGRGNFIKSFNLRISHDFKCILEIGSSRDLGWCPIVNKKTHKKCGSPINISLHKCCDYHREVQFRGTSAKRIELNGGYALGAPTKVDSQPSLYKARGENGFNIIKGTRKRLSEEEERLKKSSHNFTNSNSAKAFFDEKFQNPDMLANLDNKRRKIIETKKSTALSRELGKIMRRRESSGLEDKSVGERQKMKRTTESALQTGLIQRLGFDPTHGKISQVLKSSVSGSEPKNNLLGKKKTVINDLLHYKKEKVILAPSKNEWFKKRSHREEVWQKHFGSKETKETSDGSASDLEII

[2] = target: T2, Mcm10-KK85,372RR-LexA fusion protein (S. cerevisiae) (UniProt P32354)
T2 sequence: T1 sequence with K85R

[3] = target: T3, Mcm10-K85R-LexA fusion protein (S. cerevisiae) (UniProt P32354)
T3 sequence: T1 sequence with K85R, R372K

[4] = target: T4, Mcm10-LexA fusion protein (wild-type Mcm10) (S. cerevisiae) (UniProt P32354)
T4 sequence: T1 sequence with R372K

Measured: binding

proliferating cell nuclear antigen (PCNA) (from UniProt P15873 1-258)
binds: [1] | [2] | [3] | [4]
